PubChem BioAssay AID686938 – Drosophila RNAi Screening Center, 2013
The screen tested about 23,000 reagents; this is a random part of those with a known target gene and a result. In the full data, 75 (0.33%) are marked active. 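Raw plate signals without normalisation; calls rest on plate z-scores that were not deposited; ratio present for only 364 wells.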 Entries without a mark were called inactive. Not given: the dose of the treatment.

- Aim: 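Fly genes required for calcium entry once internal stores are emptied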 (primary screen)
- System: Drosophila S2R+ cells
- Reagents: long dsRNA against Drosophila genes, about 0.25 µg dsRNA per well, roughly 10,000 cells
- Duration: 5 days of knock-down before the calcium assay
- Conditions: thapsigargin (SERCA pump blocker) to empty calcium stores; entry signal taken 4 min after adding it
- Measured: 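Duplicate raw fluo-4 intensities per well from a plate reader, at rest and four minutes after thapsigargin emptied calcium stores; entry-to-rest ratio filled for only some wells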
- Scale: calcium entry signal: higher = stronger calcium signal after store depletion; entry to resting ratio: higher = more calcium entry relative to resting level; resting calcium signal: higher = higher resting calcium signal
- Active means: 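Hit if the duplicate-averaged plate z-score for entry over resting signal is under −3; wells with weak total dye signal (Fmax z < −2) or more than 5 off-targets removed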
- Meaning of the calls: active = strongly reduced calcium entry; inactive = no strong reduction

no.	Gene	DRSC id	calcium entry signal, replicate 1 (fluorescence units)	calcium entry signal, replicate 2 (fluorescence units)	entry to resting ratio	resting calcium signal, replicate 1 (fluorescence units)	resting calcium signal, replicate 2 (fluorescence units)
1	CG15599	DRSC19668	2.71e7	3.21e7		1.47e7	1.55e7
2	CG3081	DRSC18571	3.22e7	4.12e7		1.60e7	1.77e7
3	Slmap (Sarcolemma associated protein)	DRSC03799	4.23e7	4.34e7		2.13e7	1.83e7
4	sens-2 (senseless-2)	DRSC02136	3.53e7	3.23e7		1.68e7	1.62e7
5	sens-2 (senseless-2)	DRSC02613	3.56e7	2.94e7		1.66e7	1.53e7
6	sens-2 (senseless-2)	DRSC21374	4.34e7	3.03e7		2.25e7	1.52e7
7	spd-2 (spindle defective 2)	DRSC09682	2.34e7	3.20e7		1.13e7	2.31e7
8	CG3257	DRSC04351	4.45e7			2.18e7	
9	CG10019	DRSC00279	3.58e7	3.83e7		1.91e7	1.83e7
10	bond (james bond)	DRSC16135	3.74e7	2.54e7		1.80e7	1.39e7
11	CG30037	DRSC07305	3.59e7	3.83e7		1.73e7	1.68e7
12	CG32812	DRSC18478	4.02e7	3.77e7	2.3	1.78e7	1.65e7
13	Oseg2 (Outer segment 2)	DRSC08343	2.75e7	3.05e7		1.39e7	1.38e7
14	Psc (Posterior sex combs)	DRSC07518	2.20e7	3.09e7		1.16e7	1.28e7

Continued, starting with the last 5 of the part before.
no.	Gene	DRSC id	calcium entry signal, replicate 1 (fluorescence units)	calcium entry signal, replicate 2 (fluorescence units)	entry to resting ratio	resting calcium signal, replicate 1 (fluorescence units)	resting calcium signal, replicate 2 (fluorescence units)
10	bond (james bond)	DRSC16135	3.74e7	2.54e7		1.80e7	1.39e7
11	CG30037	DRSC07305	3.59e7	3.83e7		1.73e7	1.68e7
12	CG32812	DRSC18478	4.02e7	3.77e7	2.3	1.78e7	1.65e7
13	Oseg2 (Outer segment 2)	DRSC08343	2.75e7	3.05e7		1.39e7	1.38e7
14	Psc (Posterior sex combs)	DRSC07518	2.20e7	3.09e7		1.16e7	1.28e7
15	CG9581	DRSC20695	4.06e7	4.78e7		1.98e7	2.04e7
16	CG9581	DRSC22247	2.15e7	4.83e7		1.15e7	2.10e7
17	Cpr (Cytochrome P450 reductase)	DRSC03293	5.26e7			2.41e7	
18	CG42553	DRSC08356	3.80e7	3.46e7		2.01e7	1.79e7
19	CG14082	DRSC10086	2.25e7	4.05e7		1.09e7	1.88e7
20	Tsp42Ek (Tetraspanin 42Ek)	DRSC06187	3.46e7	3.66e7		1.72e7	1.81e7
21	CG33453	DRSC05782	3.89e7	3.92e7		1.81e7	2.01e7
22	Nup44A (Nucleoporin at 44A)	DRSC07248	2.78e7	3.09e7		1.30e7	1.48e7
23	pbl (pebble)	DRSC11381	5.10e7	3.71e7		3.78e7	2.00e7
24	CG33158	DRSC09708	6.28e7	3.05e7		2.81e7	1.63e7
25	CG33158	DRSC09709	3.79e7	4.18e7		1.85e7	1.62e7
26	CG33158	DRSC10438	4.01e7	5.77e7		1.80e7	2.30e7
27	EcR (Ecdysone receptor)	DRSC04906	4.18e7	4.79e7		2.24e7	2.45e7
28	EcR (Ecdysone receptor)	DRSC04910	3.32e7			1.72e7	
29	His-Psi:CR31754 (pseudo)	DRSC22051	2.24e7	4.77e7		1.32e7	2.45e7
30	IleRS-m (Isoleucyl-tRNA synthetase, mitochondrial)	DRSC10506	3.33e7	5.33e7		1.68e7	2.13e7
31	mRpL38 (mitochondrial ribosomal protein L38)	DRSC19734	2.84e7	3.21e7		1.33e7	1.44e7
32	Polr3D (RNA polymerase III subunit D)	DRSC10485	2.87e7	4.19e7		1.37e7	3.14e7
33	Cndp2 (Cytosolic non-specific dipeptidase 2)	DRSC04873	4.00e7	4.63e7		2.09e7	2.06e7
34	dgrn (degringolade)	DRSC12154	3.98e7	4.75e7		1.77e7	2.10e7
35	CG7101	DRSC20023	4.45e7	4.97e7		2.09e7	2.08e7
36	CG7101	DRSC22845	2.59e7	3.96e7		1.39e7	1.84e7
37	trpl (transient receptor potential-like)	DRSC06728	3.65e7	3.47e7		1.74e7	1.43e7
38	trpl (transient receptor potential-like)	DRSC06729	4.10e7	3.78e7		1.99e7	1.96e7
39	CG43058	DRSC05434	5.41e7	4.00e7		2.22e7	1.69e7
40	wmd (wing morphogenesis defect)	DRSC04436	4.81e7			2.38e7	
